Laboratory results reported in patent publication US20250276955A1, “CORONAVIRUS MAIN PROTEASE INHIBITORS AND METHODS USING SAME” (Baylor College of Medicine, priority 2021, published 2025).
Some results were stated once for a whole list of compounds, not compound by compound.

Test system: HepG2 cells
Assay: HepG2 cytotoxicity assay (XTT)
Settings: 24 hours, normalized to DMSO

COc1cc(-c2cccc3[nH]ncc23)cc(C=O)c1OCC(=O)N(C)C [CDD-1713, 2-(2-formyl-4-(1H-indazol-4-yl)-6-methoxyphenoxy)-N,N-dimethylacetamide]
HepG2 cell viability in the 100 μM group: > 80%

CCCC(NC(=O)c1cccc2nc(-c3cncc4ccccc34)n([C@H]3C[C@H](C(=O)NC)C3)c12)c1ccc(C(F)(F)F)cc1 (stereo partly shown) [CDD-1733]
HepG2 cell viability in the 100 μM group: > 80%

CNC(=O)[C@H]1C[C@H](n2c(-c3cncc4ccccc34)nc3cccc(C(=O)NC(C)c4ccc5ccccc5c4)c32)C1 (stereo partly shown) [CDD-1819]
HepG2 cell viability in the 100 μM group: > 80%

CN(C)C(=O)COc1ccc(-c2cccc3[nH]ncc23)cc1C=O [CDD-1976]
HepG2 cell viability in the 100 μM group: > 80%
